Z-score data for 104 sequences are collected here from PubChem BioAssay AID1347423 (Functional Genomics Laboratory (NCATS/FGL), 2020).

About 210 (0.4%) of roughly 52,000 sequences were called active.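 Rule for the calls: active = gene whose silencing raises cell survival under the drug, median off-target-corrected z-score across its silencing RNAs 2 or more; inactive = the rest.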 Some of the results follow.

This assay can be described thus: Resistance to Poly (ADP-Ribose) Polymerase inhibitor: Gene Identification via Genome-wide siRNA Screen. The conditions noted are these: mouse BRCA2 R2336H ES cells, olaparib, CellTiter-Glo viability; hits give high values. The method, boiled down: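 Mouse BRCA2 R2336H ES cells were reverse-transfected with siRNA (20 nM final), treated at 48 h with 500 nM olaparib, and read by CellTiter-Glo after 72 h. Scores: MAD-based z per siRNA, median per gene, seed off-target correction.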
On the technique in general: ATP-based viability assays read luminescence as a measure of living cells.
Consider GCCAUUAAUGUACCAGGUUTT against Olfr894, for which the z-score was inactive: -1.81.

Take CCGCUCACUUCUUGAAUAUTT against Rnf125: the z-score was inactive: -0.852.

Regarding GGACGUAGAAGUUUGGGAGTT against Nupl2, the z-score is inactive: -0.119.

As for GGCCCACUUUAUCAUGAAUTT against Zfp259, the z-score was inactive: -0.205.

Consider GGGAGAUCUUUAAGAGAAATT against Tcfap2a, for which the z-score is inactive: -0.65.

Regarding GCUACGCUUCCUUAUUUGCTT against Tubgcp3, the z-score is inactive: -1.56.

In the case of “GGAACUCACUAACUUCUUGTT against 4930432J16Rik”, the z-score was inactive: -0.135.

As to GGGUGGUAACAACAUUAAATT against Bicc1, the z-score was inactive: 1.33.

Turning to GCACACGAAGCAUUGACACTT against Als2cr13, the z-score is inactive: 0.767.

Regarding GCCCUGGAAGAAUUAUGUGTT against Cml4, the z-score was inactive: 0.186.

CCAUUUCUCACCAGUGAUCTT against LOC433481: the z-score is inactive: 0.609.

GGCCAAUCUCACCUGGACATT against Man2b1: the z-score was inactive: 0.0484.

With GGGCAUUUAAAAUAAGGCATT against Nfib, the z-score is inactive: 0.652.

Regarding GGAGUACAUUCCCUCUACCTT against Cml1, the z-score was inactive: 0.554.

As to CGUUGAUGUGUAUUUAAACTT against AW146242, the z-score is inactive: 0.87.

For the sequence GGAUCCUGCUAAGACCAUCTT against Sstr3, the z-score was inactive: 1.25.

For the sequence CGUAACUGAGUCAAUUAGUTT against Pdzk6, the z-score is inactive: -0.493.

For the sequence GGCACAAAAGAAGAUCCUGTT against Tnfaip8, the z-score was inactive: 0.328.

Turning to GCUAUUUUCGUCACUUUCUTT against Stk22a, the z-score is inactive: -0.302.

With “GCAAUACGUGGAAGAUGGATT against G630042G04”, the z-score is inactive: -2.37.

Consider CCAUUGCAUAUUUAGUAGCTT against Sox11, for which the z-score is inactive: -0.326.

Turning to GGUGGUACAGGAUCUAUGUTT against Etfa, the z-score was inactive: -0.279.

As for “GGUUUAAACCAGAAAAAUGTT against 4930524B15Rik”, the z-score was inactive: -0.0462.

Regarding GGUUUACACCCUCAGAUCATT against Cct7, the z-score is inactive: -2.96.

For GGUCAAGUUAAGGUAUUUCTT against Pkhd1, the z-score was inactive: 0.495.

Take GGCAUGACUUCCACAUGAATT against Pdcd1: the z-score is inactive: 0.701.

As for GAACCAUCCGAGUAUGGCUTT against Wdfy1, the z-score is inactive: -1.25.

As for GGAAGUCUAGGUAAAAAAGTT against Samsn1, the z-score was inactive: 0.246.

For GGUCAUUGAAAACUGUGCGTT against Sardh, the z-score was inactive: -0.00863.

In the case of GGUGAUUUGAACCUUUUGATT against Rab3d, the z-score is inactive: -0.344.

GGUUAUAUGCAGAGGAACUTT against Arid1a: the z-score was inactive: -1.09.

On to GGCUUUAAAGGGAAUGCCCTT against Ube1c, for which the z-score was inactive: 0.61.

Consider GGCACCUUGGAGUUACAUATT against Pcdha10, for which the z-score was inactive: -1.21.

On to CGAGUCAAUCAACUUGUCUTT against Olfr54, for which the z-score is inactive: -0.239.

With GGUGACUAGUUCCAGAAGATT against Ptprm, the z-score is inactive: 0.382.

For the sequence GCAUCUGGGACAUUUAGAGTT against Cd200r3, the z-score is inactive: -0.809.

As to CGGGUAACAGAAAUACUGUTT against Trib1, the z-score is inactive: 1.05.

For the sequence GGCUGUAGCCAAAUAUCUUTT against Tloc1, the z-score is inactive: 0.579.

Regarding “GGAGAGGAUGCAUGUAAAATT against 1110004B15Rik”, the z-score was inactive: -1.95.

For the sequence GGCAGUCAAUGAAGUUUUUTT against Fbxo38, the z-score was inactive: -0.183.

Take GGACUGUGGCACAGAGAAATT against Hgfac: the z-score was inactive: 0.154.

Take GCUUUUCUAGAAUACAGCCTT against Tdpoz4: the z-score is inactive: 0.43.

With UACUUCUGACUGUCAUUGGTT against Olfr310, the z-score is inactive: 0.947.

Turning to “GGAUAAUGCUUUAUGGGAATT against 1700112P19Rik”, the z-score is inactive: 0.693.

As for CGUAAAACGAGUGCUUUUATT against Tcfcp2l3, the z-score is inactive: 1.21.

Turning to GGUCACGAUUAUCUUCAAATT against Rgmb, the z-score is inactive: -0.29.

Regarding GGAACACUUUAAGACCAAATT against Fmnl1, the z-score was inactive: 1.6.

Turning to GGCCCUUCAUGAAGAGCAATT against Carf, the z-score is inactive: 0.265.

Consider GGACAAUUAUGAGAUGCACTT against Surf5, for which the z-score is inactive: -0.381.

Turning to GGAAGACAACAACCUAGAATT against Rpn1, the z-score was inactive: 0.231.

In the case of GCAGGACAUGUUGUUCCCUTT against Aarsl, the z-score was inactive: -1.57.

Take GGGAAGGCACACCAUAGAATT against Zfp369: the z-score was inactive: 2.

With GGAGGUAACAACAACAGAATT against BC028528, the z-score is inactive: 0.67.

As for “CGGCAGAUGCAUUCAGGAUTT against 5830436D01Rik”, the z-score was inactive: 1.82.

In the case of GGGACAGUAGAAGAUGUAGTT against Got2, the z-score is inactive: -2.53.

Regarding “GCAUUAAACUGAUUAUCGATT against 4631426J05Rik”, the z-score was inactive: 0.856.

Turning to CGGGAAGAAGUUCAUAAAUTT against Topbp1, the z-score was inactive: -1.43.

For GCAGGUUUAACAACUUACUTT against Dmgdh, the z-score was inactive: -0.352.

GGGAGAUGAAGAGGAGAAGTT against Smad9: the z-score is inactive: -2.34.

For “GCCACAGAGCUAGACUGUCTT against 2810046M22Rik”, the z-score was inactive: -0.347.

Consider GGAACACAAACUGAAAGUCTT against Elac2, for which the z-score is inactive: 0.85.

With “CCUCGACAUCUAAUGAAGATT against 4933405O20Rik”, the z-score is inactive: 0.731.

CGCAUAUUGAGAUAUCUUGTT against Cbln3: the z-score is inactive: 0.834.

For the sequence GGAAUUAGUCUCCAAAUAUTT against Eat2, the z-score is inactive: -2.33.

Take GGUUGAAGAUGAAAGAAGATT against Sin3a: the z-score was inactive: -3.23.

On to GCAGCAAGUUUUGUCAGGGTT against Tmprss13, for which the z-score is inactive: -0.689.

As to “GGGUAAUGGGCCAGUAUCATT against 1700025K23Rik”, the z-score was inactive: -2.14.

With GCAAAUCGAAAGCGGAGGUTT against Fem1c, the z-score is inactive: 0.315.

With GCAAACUGCUCUGUGGUAUTT against Olfr1310, the z-score is inactive: -0.171.

With GGAUUUGACAGGUUUGGAATT against MGC79224, the z-score was inactive: 0.486.

GGGUAUGUGCAAAUAUUCATT against Anln: the z-score is inactive: 1.29.

Turning to “CCUAUUUGGCCAUUAUCCATT against 2810423G08Rik”, the z-score is inactive: -0.201.

Take GGACAGGUUCGAGUCAACATT against Agc1: the z-score was inactive: 2.89.

Turning to GCGGCUCUUACGAGGUUUATT against Upk3a, the z-score is inactive: -0.87.

Turning to “GUACGUCAAGAGCCUGCGUTT against 5430432M24Rik”, the z-score was inactive: 0.455.

On to GGAUGCACUAUCAUUAAGCTT against Tpx2, for which the z-score is inactive: 0.672.

Regarding CCAAAUGAUUCUGUGGCUGTT against Cebpe, the z-score is inactive: -0.507.

For the sequence GGAUCUUCUUCUAUCAGUCTT against Ncf4, the z-score is inactive: -0.982.

Take GGGAUAUCAGUAUUUCUCATT against AI413782: the z-score was inactive: 0.216.

Turning to GGCAACAUCCAAAAACUCUTT against Yme1l1, the z-score was inactive: -1.34.

With CCAGCAAAUGAGAGGUCUGTT against Olfr1024, the z-score is inactive: -1.39.

Turning to GGCCAUUCUGGAAACUCCATT against Foxp4, the z-score was inactive: -1.17.

As for GCAAGCCAACUGACCAUCATT against Nudt2, the z-score is inactive: -2.21.

On to “CCACUUAACGAAGAAAUUATT against 8030462N17Rik”, for which the z-score was inactive: 0.0347.

In the case of “GGUAGGCUAAAUAAAGAAGTT against 1500009M05Rik”, the z-score was inactive: 0.659.

On to GCUUGGCAGGUGAAUGUCATT against Oprm1, for which the z-score is inactive: 0.182.

GGGAUUUUGCUGAAACUCATT against Klhl12: the z-score was inactive: -0.864.

GGAAGAGGAGAGGAAGAAGTT against Dncic1: the z-score was inactive: 0.692.

For the sequence GGCAAAGGACUUCAUGGCUTT against B4galt4, the z-score is inactive: 1.72.

On to GGGUUUUGCUACAUCAAUGTT against Pgm2l1, for which the z-score was inactive: 0.337.

Turning to GGUUUAUCCUACAGCGAAGTT against Plpcd, the z-score is inactive: -0.15.

In the case of GCGGUGUGUUUCAAUAGUUTT against Clecsf10, the z-score was inactive: -0.536.

Consider “GGACAGUGGAAGGAAUCCATT against 2310033P09Rik”, for which the z-score is inactive: 0.15.

As for “GCUCCUAUCCACAAUGCUGTT against D930005D10Rik”, the z-score is inactive: 1.51.

Consider “GCUCUUUCUAGCUUAUGAUTT against 2810405I11Rik”, for which the z-score was inactive: -0.716.

Take “CCACAUUGGUACUAGUCAATT against 4932442K08Rik”: the z-score was inactive: -0.713.

With “GGGACAAUAAAACCAACACTT against A730098P15”, the z-score is inactive: -0.686.

As for CCGUGAAUUUGGAUGAUGGTT against T2, the z-score was inactive: -1.3.

For the sequence “GGCUGUGCUGAUCACCUACTT against 0610011F06Rik”, the z-score was inactive: 0.462.

Consider “GGAGCUUCUGGAGUAUUAUTT against 2700091N06Rik”, for which the z-score is inactive: -0.611.

With GAAAGGAAAGCUAGCCAUGTT against LOC434459, the z-score is inactive: 0.869.

With GCUGUACGUUGUAUGUUGGTT against Ncbp2, the z-score is inactive: 1.02.

As to GCCAUCCUUGUGCUAAGAGTT against Ifna4, the z-score was inactive: -0.858.

In the case of GGGAAUAGAUCUGAACCGUTT against Cpe, the z-score was inactive: -2.12.
